Test [1] concerns the target T1, A189V mutant follicle-stimulating hormone receptor, C-terminally MAC-tagged (human) (UniProt P23945).
T1 sequence: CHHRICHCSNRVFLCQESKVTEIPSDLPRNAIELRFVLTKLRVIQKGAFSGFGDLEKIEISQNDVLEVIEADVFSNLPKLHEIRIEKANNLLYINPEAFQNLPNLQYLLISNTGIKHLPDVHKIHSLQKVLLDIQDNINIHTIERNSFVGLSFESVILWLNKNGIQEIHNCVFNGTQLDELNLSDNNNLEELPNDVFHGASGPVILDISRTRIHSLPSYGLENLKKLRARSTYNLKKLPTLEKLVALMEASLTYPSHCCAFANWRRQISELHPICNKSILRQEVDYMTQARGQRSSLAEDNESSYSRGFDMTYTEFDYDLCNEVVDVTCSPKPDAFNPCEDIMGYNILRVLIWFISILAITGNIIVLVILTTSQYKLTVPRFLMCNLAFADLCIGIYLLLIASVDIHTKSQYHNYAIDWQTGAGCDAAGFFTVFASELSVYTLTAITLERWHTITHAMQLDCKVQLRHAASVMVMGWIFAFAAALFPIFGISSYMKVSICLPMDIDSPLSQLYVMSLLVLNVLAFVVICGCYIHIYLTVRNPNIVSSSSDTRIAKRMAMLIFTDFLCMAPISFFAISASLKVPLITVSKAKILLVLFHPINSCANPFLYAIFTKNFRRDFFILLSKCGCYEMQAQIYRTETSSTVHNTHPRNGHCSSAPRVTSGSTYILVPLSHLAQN
Nature of the test: affinity purification with mass spectrometry; as a1, cells without FSH stimulation only (receptor at resting state).

Protein sequences, listed by entry. Tags and fused reporters are not part of them. Residues count along the entry.
UniProt P08069, residues 31-1367: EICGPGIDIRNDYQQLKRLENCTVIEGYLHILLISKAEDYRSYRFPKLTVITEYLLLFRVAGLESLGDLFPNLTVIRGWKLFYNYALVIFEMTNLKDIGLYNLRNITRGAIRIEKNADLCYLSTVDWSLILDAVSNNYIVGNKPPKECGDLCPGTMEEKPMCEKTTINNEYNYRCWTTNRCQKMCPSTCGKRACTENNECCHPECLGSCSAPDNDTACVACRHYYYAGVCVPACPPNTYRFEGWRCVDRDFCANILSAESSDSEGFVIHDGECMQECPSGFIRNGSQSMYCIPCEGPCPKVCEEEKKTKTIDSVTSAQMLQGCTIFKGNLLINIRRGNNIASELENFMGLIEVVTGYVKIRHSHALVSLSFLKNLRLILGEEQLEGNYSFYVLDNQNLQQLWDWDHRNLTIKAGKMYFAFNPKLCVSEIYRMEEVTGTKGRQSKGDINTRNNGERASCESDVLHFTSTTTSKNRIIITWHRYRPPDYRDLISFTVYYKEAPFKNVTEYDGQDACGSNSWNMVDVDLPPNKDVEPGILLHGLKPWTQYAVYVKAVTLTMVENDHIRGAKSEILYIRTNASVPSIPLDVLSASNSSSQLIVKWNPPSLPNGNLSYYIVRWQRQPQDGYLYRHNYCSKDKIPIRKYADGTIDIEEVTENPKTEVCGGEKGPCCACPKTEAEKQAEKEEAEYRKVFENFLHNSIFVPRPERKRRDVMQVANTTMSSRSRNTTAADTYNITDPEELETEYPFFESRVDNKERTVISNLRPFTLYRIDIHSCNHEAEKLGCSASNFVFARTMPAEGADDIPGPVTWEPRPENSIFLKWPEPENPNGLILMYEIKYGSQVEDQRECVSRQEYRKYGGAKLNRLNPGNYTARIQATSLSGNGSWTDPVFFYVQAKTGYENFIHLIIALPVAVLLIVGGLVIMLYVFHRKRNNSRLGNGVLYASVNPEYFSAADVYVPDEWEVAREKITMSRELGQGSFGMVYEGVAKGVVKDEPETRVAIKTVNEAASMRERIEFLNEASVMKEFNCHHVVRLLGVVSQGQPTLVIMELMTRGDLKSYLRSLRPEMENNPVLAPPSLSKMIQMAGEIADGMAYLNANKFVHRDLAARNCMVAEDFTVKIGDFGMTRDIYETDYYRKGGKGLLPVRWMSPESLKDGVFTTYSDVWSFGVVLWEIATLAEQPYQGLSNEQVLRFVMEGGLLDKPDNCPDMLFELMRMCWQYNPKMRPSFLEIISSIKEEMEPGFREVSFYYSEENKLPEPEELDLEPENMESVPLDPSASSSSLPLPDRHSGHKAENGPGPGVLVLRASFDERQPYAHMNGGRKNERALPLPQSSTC
UniProt Q7Z739: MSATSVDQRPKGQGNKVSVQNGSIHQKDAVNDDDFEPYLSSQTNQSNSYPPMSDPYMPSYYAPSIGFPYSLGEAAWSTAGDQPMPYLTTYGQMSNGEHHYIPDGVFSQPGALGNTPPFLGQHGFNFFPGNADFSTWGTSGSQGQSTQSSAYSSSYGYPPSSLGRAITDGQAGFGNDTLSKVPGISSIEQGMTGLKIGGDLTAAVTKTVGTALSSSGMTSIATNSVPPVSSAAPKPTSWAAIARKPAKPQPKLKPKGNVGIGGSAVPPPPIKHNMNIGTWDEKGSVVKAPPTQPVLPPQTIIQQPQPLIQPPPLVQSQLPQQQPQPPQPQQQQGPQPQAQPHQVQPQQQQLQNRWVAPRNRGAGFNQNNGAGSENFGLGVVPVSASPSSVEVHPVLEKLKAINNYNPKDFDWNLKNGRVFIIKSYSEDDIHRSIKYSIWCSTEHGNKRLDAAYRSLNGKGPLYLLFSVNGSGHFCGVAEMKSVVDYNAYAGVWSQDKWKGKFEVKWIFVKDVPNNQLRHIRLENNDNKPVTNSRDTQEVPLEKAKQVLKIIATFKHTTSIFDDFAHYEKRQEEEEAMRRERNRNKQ
UniProt P05067, residues 18-770: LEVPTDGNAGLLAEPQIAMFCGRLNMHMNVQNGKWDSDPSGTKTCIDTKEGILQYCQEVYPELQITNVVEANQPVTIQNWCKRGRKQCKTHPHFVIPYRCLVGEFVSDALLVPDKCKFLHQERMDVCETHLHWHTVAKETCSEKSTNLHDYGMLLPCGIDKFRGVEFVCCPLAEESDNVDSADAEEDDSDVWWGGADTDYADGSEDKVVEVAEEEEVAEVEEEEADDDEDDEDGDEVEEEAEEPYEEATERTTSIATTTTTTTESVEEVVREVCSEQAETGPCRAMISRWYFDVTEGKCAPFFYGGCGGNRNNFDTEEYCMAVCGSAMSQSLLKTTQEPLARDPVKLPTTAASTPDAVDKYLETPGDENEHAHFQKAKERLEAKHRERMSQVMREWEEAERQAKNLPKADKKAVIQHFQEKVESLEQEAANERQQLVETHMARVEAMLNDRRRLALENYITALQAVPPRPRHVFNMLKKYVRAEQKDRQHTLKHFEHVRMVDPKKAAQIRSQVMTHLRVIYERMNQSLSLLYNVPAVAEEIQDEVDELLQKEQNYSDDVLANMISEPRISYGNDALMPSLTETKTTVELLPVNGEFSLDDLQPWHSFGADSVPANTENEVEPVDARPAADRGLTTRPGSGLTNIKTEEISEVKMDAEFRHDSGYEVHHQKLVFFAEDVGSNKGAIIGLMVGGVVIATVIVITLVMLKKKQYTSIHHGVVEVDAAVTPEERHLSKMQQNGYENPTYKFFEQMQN
UniProt Q9Y5G0, residues 31-923: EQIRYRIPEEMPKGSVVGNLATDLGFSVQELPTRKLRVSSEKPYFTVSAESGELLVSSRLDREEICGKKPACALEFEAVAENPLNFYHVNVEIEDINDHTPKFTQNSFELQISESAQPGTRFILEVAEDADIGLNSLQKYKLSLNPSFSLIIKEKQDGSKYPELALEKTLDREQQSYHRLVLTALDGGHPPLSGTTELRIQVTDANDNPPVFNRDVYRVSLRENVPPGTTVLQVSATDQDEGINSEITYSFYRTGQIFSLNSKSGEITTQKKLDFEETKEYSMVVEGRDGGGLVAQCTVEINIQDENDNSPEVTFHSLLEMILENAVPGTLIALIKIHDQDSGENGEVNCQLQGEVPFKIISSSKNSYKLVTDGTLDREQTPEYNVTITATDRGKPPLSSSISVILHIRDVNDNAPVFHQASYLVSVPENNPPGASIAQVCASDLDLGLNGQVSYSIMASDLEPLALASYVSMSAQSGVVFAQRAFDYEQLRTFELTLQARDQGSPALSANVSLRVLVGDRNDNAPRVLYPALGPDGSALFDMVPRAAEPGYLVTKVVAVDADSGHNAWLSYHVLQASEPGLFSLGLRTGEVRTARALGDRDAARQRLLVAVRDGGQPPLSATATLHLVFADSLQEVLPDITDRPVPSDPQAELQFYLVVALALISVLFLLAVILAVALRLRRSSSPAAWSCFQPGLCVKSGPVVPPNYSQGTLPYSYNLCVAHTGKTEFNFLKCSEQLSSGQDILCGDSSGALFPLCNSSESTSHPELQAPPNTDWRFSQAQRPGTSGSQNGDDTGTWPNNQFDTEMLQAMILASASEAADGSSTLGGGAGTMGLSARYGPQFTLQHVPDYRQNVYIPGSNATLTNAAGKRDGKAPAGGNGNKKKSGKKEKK

The target of test [2] is T2, wild-type follicle-stimulating hormone receptor, C-terminally MAC-tagged (human) (UniProt P23945).
T2 sequence: T1 sequence with V172A
The test is described as above.

Test [3] concerns the target T1, A189V mutant follicle-stimulating hormone receptor, C-terminally MAC-tagged (human). As to the kind of experiment: affinity purification with mass spectrometry; C-terminally MAC-tagged WT or A189V FSHR as bait from Flp-In 293 T-REx lysate (0.5% NP40, 150 mM NaCl, HEPES pH 8.0) on Strep-Tactin matrix, eluted with biotin; cells non-stimulated or stimulated 2 h at 37 C with 100 ng/ml FSH; high-confidence interactions by SAINT (Bayesian FDR < 0.01) against GFP controls and CRAPome.

Test [4] has as its target T2, wild-type follicle-stimulating hormone receptor, C-terminally MAC-tagged (human). The description is as above.

Where a chain is given by its changes, count along the chain named. No constants are given. Whether binding was seen depends on the method and setting. Binding seen in cells or lysates may run through a third protein. Here binding means that the protein was enriched with, or labelled near, the bait; the list need not be complete. For part of these data: No binding means not detected with the bait. Where a sequence is shown, tags or fusion partners need not be part of it.

Take “Insulin-like growth factor 1 receptor (from UniProt P08069 31-1367)”: the binding result in test [1] is reported as “no binding (only without FSH stimulation)”; in test [2], “no binding (only without FSH stimulation)”; in test [3], “binds”; in test [4], “binds”.
In the case of “YTH domain-containing family protein 3 (from UniProt Q7Z739 1-585)”, the binding result is “no binding” in test [3] and “binds” in test [4].
For “amyloid precursor protein (from UniProt P05067 18-770)”, in test [3], the binding result is given as “binds”.
On to “procadherin gamma-B5 (from UniProt Q9Y5G0 31-923)”, for which the binding entry in test [3] and in test [4] was “binds” each time.

B1: TGF-beta receptor type-1 (receptor, UniProt P36897 34-503)
chain: LQCFCHLCTKDNFTCVTDGLCFVSVTETTDKVIHNSMCIAEIDLIPRDRPFVCAPSSKTGSVTTTYCCNQDHCNKIELPTTVKSSPGLGPVELAAVIAGPVCFVCISLMLMVYICHNRTVIHHRVPNEEDPSLDRPFISEGTTLKDLIYDMTTSGSGSGLPLLVQRTIARTIVLQESIGKGRFGEVWRGKWRGEEVAVKIFSSREERSWFREAEIYQTVMLRHENILGFIAADNKDNGTWTQLWLVSDYHEHGSLFDYLNRYTVTVEGMIKLALSTASGLAHLHMEIVGTQGKPAIAHRDLKSKNILVKKNGTCCIADLGLAVRHDSATDTIDIAPNHRVGTKRYMAPEVLDDSINMKHFESFKRADIYAMGLVFWEIARRCSIGGIHEDYQLPYYDLVPSDPSVEEMRKVVCEQKLRPNIPNRWQSCEALRVMAKIMRECWYANGAARLTALRIKKTLSQLSQQEGIKM
With B1, in test [3], the binding entry is “binds”.

B2: stromal cell-derived factor 2 (protein, UniProt Q99470 19-211)
chain: SSLGVVTCGSVVKLLNTRHNVRLHSHDVRYGSGSGQQSVTGVTSVDDSNSYWRIRGKSATVCERGTPIKCGQPIRLTHVNTGRNLHSHHFTSPLSGNQEVSAFGEEGEGDYLDDWTVLCNGPYWVRDGEVRFKHSSTEVLLSVTGEQYGRPISGQKEVHGMAQPSQNNYWKAMEGIFMKPSELLKAEAHHAEL
Consider B2, for which the binding entry in test [3] and in test [4] was “binds” throughout.
